Experimental data: PubChem BioAssay AID1224830 (NIAID, 2016)

- Purpose: 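Regulators of TLR4 signalling towards TNF-alpha in macrophage-like cells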 (primary screen)
- System: human THP-1 monocytic leukaemia cells, TNF dual-luciferase reporter clone, PMA-differentiated to macrophage-like cells
- Knock-down reagent: siRNA pool against human genes, 50 nM
- Duration: LPS for 4 h, given about 3 days after siRNA transfection
- Conditions: bacterial LPS (TLR4 ligand), 10 ng/ml
- Measured: 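TNF firefly reporter luminescence divided by renilla, normalised to the plate median, then turned into a robust z-score for each replicate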
- Reading the numbers: TNF reporter robust z-score: higher = stronger TNF reporter response to LPS
- Rule for the call: 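Each well counts as active if its z-score is over 2.8 or under -1.5; controls are left without a call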
In all, the deposit lists about 18,000 reagents; this is a random part of them. About 2,900 of all reagents (16%) count as active. 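Calls are made per well; low scores hint the gene aids the LPS response, high scores that it dampens it.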 Entries without a mark were called inactive. Repeated entries: four replicate wells of each siRNA pool.

Against OCM2 (GeneID 4951), the values are TNF reporter robust z-score -0.21.
OCM2 (GeneID 4951) scored TNF reporter robust z-score 0.46.
OCM2 (GeneID 4951) gave TNF reporter robust z-score 0.15.
For OCM2 (GeneID 4951), the values are TNF reporter robust z-score 0.41.
OR2T29 (GeneID 343563) showed TNF reporter robust z-score -0.47.
Against OR2T29 (GeneID 343563), the values are TNF reporter robust z-score 0.24.
OR2T29 (GeneID 343563) showed TNF reporter robust z-score 0.27.
Silencing of OR2T29 (GeneID 343563) resulted in: TNF reporter robust z-score 0.06.
Silencing of CIRBP (GeneID 1153) gave: TNF reporter robust z-score -0.25.
With knock-down of CIRBP (GeneID 1153), the screen gave TNF reporter robust z-score -0.13.
With knock-down of CIRBP (GeneID 1153) the results were TNF reporter robust z-score -0.29.
For CIRBP (GeneID 1153), the values are TNF reporter robust z-score 0.
Against CHIC1 (GeneID 53344), the values are TNF reporter robust z-score 0.
CHIC1 (GeneID 53344) showed TNF reporter robust z-score -0.55.
After knock-down of CHIC1 (GeneID 53344), the screen gave TNF reporter robust z-score -1.47.
After knock-down of CHIC1 (GeneID 53344), the screen gave TNF reporter robust z-score -1.36.
RAX2 (GeneID 84839) showed TNF reporter robust z-score 0.66.
RAX2 (GeneID 84839) showed TNF reporter robust z-score 2.83 (active).
Depletion of RAX2 (GeneID 84839) resulted in: TNF reporter robust z-score 1.45.
Against RAX2 (GeneID 84839), the entry reads TNF reporter robust z-score 1.25.

Entries listed so far called active, once more:
RAX2 (GeneID 84839) | TNF reporter robust z-score: 2.83 (active)

Additional results follow.
Knock-down of KRTAP12-2 (GeneID 353323) came out at: TNF reporter robust z-score -0.13.
Depletion of KRTAP12-2 (GeneID 353323) came out at: TNF reporter robust z-score -0.37.
Depletion of KRTAP12-2 (GeneID 353323) came out at: TNF reporter robust z-score -0.2.
Silencing of KRTAP12-2 (GeneID 353323) resulted in: TNF reporter robust z-score 0.56.
For KLK4 (GeneID 9622) the deposit lists TNF reporter robust z-score 1.96.
Against KLK4 (GeneID 9622), the values are TNF reporter robust z-score 1.49.
Depletion of KLK4 (GeneID 9622) gave: TNF reporter robust z-score 2.18.
KLK4 (GeneID 9622) scored TNF reporter robust z-score 0.57.
Knock-down of EID2 (GeneID 163126) resulted in: TNF reporter robust z-score 0.98.
EID2 (GeneID 163126) gave TNF reporter robust z-score 0.18.
For EID2 (GeneID 163126) the deposit lists TNF reporter robust z-score 0.07.
EID2 (GeneID 163126) gave TNF reporter robust z-score -0.22.
With knock-down of ARID2 (GeneID 196528), the record shows TNF reporter robust z-score 1.45.
ARID2 (GeneID 196528) scored TNF reporter robust z-score 0.73.
ARID2 (GeneID 196528) showed TNF reporter robust z-score -0.19.
Against ARID2 (GeneID 196528), the entry reads TNF reporter robust z-score 0.12.
With knock-down of KANSL3 (GeneID 55683), the record shows TNF reporter robust z-score 0.06.
For KANSL3 (GeneID 55683), the values are TNF reporter robust z-score 0.08.
Against KANSL3 (GeneID 55683), the values are TNF reporter robust z-score 0.56.
For KANSL3 (GeneID 55683), the values are TNF reporter robust z-score 0.3.
Against MCTS1 (GeneID 28985), the values are TNF reporter robust z-score -0.06.
With knock-down of MCTS1 (GeneID 28985), the screen gave TNF reporter robust z-score 0.
Silencing of MCTS1 (GeneID 28985) came out at: TNF reporter robust z-score 0.13.
Against MCTS1 (GeneID 28985) the deposit lists TNF reporter robust z-score 0.81.
After knock-down of IL4 (GeneID 3565), the record shows TNF reporter robust z-score -0.63.
Knock-down of IL4 (GeneID 3565) came out at: TNF reporter robust z-score -0.13.
Silencing of IL4 (GeneID 3565) came out at: TNF reporter robust z-score -0.44.
Knock-down of IL4 (GeneID 3565) resulted in: TNF reporter robust z-score -0.4.
